Measurements taken from patent US20240342214A1 (MEDIZINISCHE HOCHSCHULE HANNOVER, published 2024).
No constants are given. Whether binding was seen depends on the method and setting. Some binding calls cover weakened binding; strength is not graded here.

Target: T1, human ENTPD3 (Ectonucleoside triphosphate diphosphohydrolase 3) expressed on cells (human) (UniProt O75355)
T1 sequence: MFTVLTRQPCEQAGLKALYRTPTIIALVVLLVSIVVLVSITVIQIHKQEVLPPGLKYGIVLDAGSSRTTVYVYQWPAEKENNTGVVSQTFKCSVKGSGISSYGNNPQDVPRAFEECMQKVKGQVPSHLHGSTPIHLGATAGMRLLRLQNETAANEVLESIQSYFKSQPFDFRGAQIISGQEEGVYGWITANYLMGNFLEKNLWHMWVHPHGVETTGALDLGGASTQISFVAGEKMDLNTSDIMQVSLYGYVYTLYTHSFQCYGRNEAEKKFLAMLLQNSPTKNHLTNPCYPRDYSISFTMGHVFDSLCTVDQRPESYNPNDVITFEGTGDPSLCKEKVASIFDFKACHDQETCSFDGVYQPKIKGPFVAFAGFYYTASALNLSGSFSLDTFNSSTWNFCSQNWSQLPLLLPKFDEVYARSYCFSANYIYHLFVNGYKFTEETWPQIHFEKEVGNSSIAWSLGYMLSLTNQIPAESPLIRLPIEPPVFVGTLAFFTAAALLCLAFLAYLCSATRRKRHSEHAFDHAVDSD
Assay: flow cytometry; soluble scFv on transfected HEK293T cells; anti-His PE

B1: hg012-A8 scFv (scFv)
scFv: QVTLKESGGGLVQPGRSLRLSCAASGFTFDDYAMHWVRQAPGKGLEWVSGISWNSGSIGYADSVKGRFTISRDNAKNSLYLQMNSLRAEDTALYYCAKGANYDILTGYRKDNWFDPWGQGTLVTVSSGSASAPKLEEGEFSEARVLPVLTQPPSASGTPGQKVTISCSGSSSNIGSNYVFWYEQLPGAAPKLLMYSSNQRPSGVPDRFSGSKSGTSASLAISGLRSEDEADYYCAAWDDSLSGWVFGGGTKLTVLGQPKAAPSVTLFPPSSAAAGSEQKLISEEDLSHHHHHH
notes: Soluble scFv made in E. coli, with Myc tag and His tag
With B1 the binding was “binds”.

B2: hg012-F10 scFv (scFv)
scFv: QMQLVQSGGGVVQPGRSLRLSCAASGFTFSSYGMHWVRQAPGKGLERVAVISYDGSNKYYADSVKGRFTISRDNSKNTLYLQMNSLRAEDTALYYCAKDHHPYGSSDSFDYWGQGTLVTVSSGSASAPKLEEGEFSEARVQAVVTQEPSLTVSPGGTVTLTCGSSTGAVTRGHYPYWLQQKPGQAPRTLIYDTVKKHSWTPARFSGSLVGGKAALTLSGAQPEDEADYYCLLSFIDTRYPARYVFGTGTKVTVLGQPKANPTVTLFPPSSAAAGSEQKLISEEDLSHHHHHH
notes: as for B1
With B2 the binding was “binds”.
